# A weaker result is weaker than the reference pair of the same experiment. For some assays here: For at least one entry, the source does not settle the construct or the ends of the probe. For some assays here: At least one verdict rests on a figure or table, not on a statement of the authors.
# What was measured:
# Assay in all cases: EMSA
# [1] = tested on: SIM1 (1-348) + ARNT2 (69-438); settings: weaker than on 79mer; EMSA: 10 nM probe, 20 mM Tris pH 8.0, 250 mM NaCl, 16 ug/ml salmon sperm ssDNA, 30 ug/ml BSA, 1.25 mM MgCl2, 6% glycerol, 10 mM DTT, room temperature 30 min; recombinant protein; protein details: 6xHis-TEV, tag removed by TEV,untagged; label: FAM (upper strand)
# [2] = tested on: SIM1.R171H (1-348) + ARNT2 (69-438); settings: weaker than on 79mer, same as WT; EMSA: 10 nM probe, 20 mM Tris pH 8.0, 250 mM NaCl, 16 ug/ml salmon sperm ssDNA, 30 ug/ml BSA, 1.25 mM MgCl2, 6% glycerol, 10 mM DTT, room temperature 30 min; recombinant protein; protein details: 6xHis-TEV, tag removed by TEV,untagged; label: FAM (upper strand)
# [3] = tested on: NPAS4 (1-329) + ARNT2 (1-481); settings: EMSA: 10 nM probe, 20 mM Tris pH 8.0, 250 mM NaCl, 16 ug/ml salmon sperm ssDNA, 30 ug/ml BSA, 1.25 mM MgCl2, 6% glycerol, 10 mM DTT, room temperature 30 min, recombinant protein, protein details: 6xHis-TEV, tag removed,untagged
# [4] = tested on: SIM1 bHLH-PASA-PASB + ARNT2 bHLH-PASA-PASB; settings: EMSA: 10 nM probe, 20 mM Tris pH 8.0, 250 mM NaCl, 16 ug/ml salmon sperm ssDNA, 30 ug/ml BSA, 1.25 mM MgCl2, 6% glycerol, 10 mM DTT, room temperature 30 min, recombinant protein, protein details: 6xHis-TEV, tag removed,untagged
# [5] = tested on: HIF1a bHLH-PASA-PASB + ARNT bHLH-PASA-PASB; settings: EMSA: 10 nM probe, 20 mM Tris pH 8.0, 250 mM NaCl, 16 ug/ml salmon sperm ssDNA, 30 ug/ml BSA, 1.25 mM MgCl2, 6% glycerol, 10 mM DTT, room temperature 30 min, recombinant protein, protein details: 6xHis-TEV, tag removed,untagged, label: FAM
# [6] = tested on: HIF2a bHLH-PASA-PASB + ARNT bHLH-PASA-PASB; settings: EMSA: 10 nM probe, 20 mM Tris pH 8.0, 250 mM NaCl, 16 ug/ml salmon sperm ssDNA, 30 ug/ml BSA, 1.25 mM MgCl2, 6% glycerol, 10 mM DTT, room temperature 30 min, recombinant protein, protein details: 6xHis-TEV, tag removed,untagged, label: FAM
# [7] = partial block, methylcytosine, bottom strand (positions in figure only)
# [8] = partial block, methylcytosine, bottom strand (positions in figure only), label: FAM
# [9] = partial block, methylcytosine, top strand (positions in figure only)
# [10] = methylcytosine, both strands (positions in figure only)
# [11] = methylcytosine, both strands (positions in figure only), label: FAM
sequence,measurement,setting,value
AAAAGGTACGTGACCAAAAAGA (double strand) [SRE 22mer (top SIM1/ARNT2 probe)],binding result,[1],binds more weakly
same,binding result,[2],binds more weakly
AAACCCGTCGTGACCAAAAATT (double strand) [CCC_NRE],binding result,[3]; label: FAM (upper strand),binds more weakly
AAATGAGTCGTGACCAAAAATT (double strand) [NRE (top NPAS4/ARNT2 22mer)],binding result,"[3]; reference probe, label: FAM (upper strand)",binds
AAATGAGTCGTGACCCCCAATT (double strand) [NRE_CCC],binding result,[3]; label: FAM (upper strand),binds more weakly
AAATGAGTCGTGGCCAAAAATT (double strand) [NRE_G],binding result,[3]; label: FAM (upper strand),binds more weakly
AATGGGTACGTGCCAAATTGAA (double strand) [HIF2a/ARNT top 22mer],binding result,[4]; label: FAM (upper strand),binds more weakly
AGGCTGCGTACGTGCGGGTCGT (double strand) [HRE C/C],binding result,[5],binds
same,binding result,[6],binds
same,binding result,[4]; label: FAM,binds
AGGCTGCGTACGTGCGGGTCGT (double strand) [HRE C/mC],binding result,[5]; [7],binds more weakly
same,binding result,[6]; [7],binds more weakly
same,binding result,[4]; [8],binds more weakly
AGGCTGCGTACGTGCGGGTCGT (double strand) [HRE mC/C],binding result,[5]; [9],binds more weakly
same,binding result,[6]; [9],binds more weakly
same,binding result,"[4]; partial block, methylcytosine, top strand (positions in figure only), label: FAM",binds more weakly
AGGCTGCGTACGTGCGGGTCGT (double strand) [HRE mC/mC],binding result,[5]; [10],binds more weakly
same,binding result,[6]; [10],binds more weakly
same,binding result,[4]; [11],binds more weakly
TGATTCTGGTAATTCGTGCACTAGAGTGTC (double strand) [BDNF exIV C/mC],binding result,[3]; [8],binds more weakly
TGATTCTGGTAATTCGTGCACTAGAGTGTC (double strand) [BDNF exIV NPAS4 response element C/C],binding result,[3]; label: FAM,binds
TGATTCTGGTAATTCGTGCACTAGAGTGTC (double strand) [BDNF exIV mC/C],binding result,"[3]; partial block, methylcytosine, top strand (positions shown in red in figure only), label: FAM",binds more weakly
TGATTCTGGTAATTCGTGCACTAGAGTGTC (double strand) [BDNF exIV mC/mC],binding result,[3]; [11],binds more weakly
